Results are given in words; binding and its absence hold for the method and conditions named. For part of these data: Binding seen in cells or lysates may run through a third protein. Tags and fused reporters may be left off the sequences shown.
Key:
[1] = biological target: T1, Recombinant Drosophila Pacman (Pcm) protein (residues 1-1141) with C-terminal FLAG tag (Drosophila) (UniProt Q9VWI1); assay: SEC; Sephacryl S-200 HR column (5 mm x 185 mm), 10 mM Tris-HCl pH 8.0, 150 mM NaCl, 0.2 mM EDTA, 1 mM DTT; input 50 µg each of Pcm and Mbf1 in 30 µl; both purified
T1 sequence: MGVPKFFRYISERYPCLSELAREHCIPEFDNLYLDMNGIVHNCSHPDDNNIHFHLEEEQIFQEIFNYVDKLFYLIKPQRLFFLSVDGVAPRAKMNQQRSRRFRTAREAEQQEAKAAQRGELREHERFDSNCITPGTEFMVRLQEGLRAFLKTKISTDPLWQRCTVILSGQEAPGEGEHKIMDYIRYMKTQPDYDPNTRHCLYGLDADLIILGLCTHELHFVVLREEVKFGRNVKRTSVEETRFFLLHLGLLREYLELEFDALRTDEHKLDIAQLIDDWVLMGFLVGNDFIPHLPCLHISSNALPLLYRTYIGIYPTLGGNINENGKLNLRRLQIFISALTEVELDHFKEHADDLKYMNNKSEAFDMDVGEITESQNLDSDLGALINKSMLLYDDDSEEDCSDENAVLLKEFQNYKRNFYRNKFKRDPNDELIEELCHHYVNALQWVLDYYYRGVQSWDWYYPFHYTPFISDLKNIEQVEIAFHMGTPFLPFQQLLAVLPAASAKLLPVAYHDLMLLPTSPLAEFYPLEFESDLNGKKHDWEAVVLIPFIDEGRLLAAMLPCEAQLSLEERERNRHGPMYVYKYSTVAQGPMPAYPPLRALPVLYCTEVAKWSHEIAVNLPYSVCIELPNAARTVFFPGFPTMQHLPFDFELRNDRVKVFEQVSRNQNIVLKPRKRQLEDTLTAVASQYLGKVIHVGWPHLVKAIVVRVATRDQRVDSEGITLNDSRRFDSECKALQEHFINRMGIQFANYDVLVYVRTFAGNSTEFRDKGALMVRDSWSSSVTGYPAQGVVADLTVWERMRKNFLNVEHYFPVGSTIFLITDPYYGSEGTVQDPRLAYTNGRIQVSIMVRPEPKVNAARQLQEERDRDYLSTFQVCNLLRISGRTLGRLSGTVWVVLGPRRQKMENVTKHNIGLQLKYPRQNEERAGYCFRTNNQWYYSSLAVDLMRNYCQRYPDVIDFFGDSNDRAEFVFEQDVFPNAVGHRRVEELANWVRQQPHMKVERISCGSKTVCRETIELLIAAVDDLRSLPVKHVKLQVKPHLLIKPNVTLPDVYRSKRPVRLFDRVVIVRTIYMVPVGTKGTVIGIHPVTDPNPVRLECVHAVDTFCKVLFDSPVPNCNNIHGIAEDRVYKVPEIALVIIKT

[2] = biological target: T1, Recombinant Drosophila Pacman (Pcm) protein (residues 1-1141) with C-terminal FLAG tag (Drosophila); assay: co-IP; purified Pcm (5 µg) and Mbf1 (5 µg) mixed in 200 µl TBST, added to anti-FLAG M2, anti-Mbf1 or normal rabbit IgG on Dynabeads Protein G; 3 h at room temperature; western blot of eluates; both purified
[3] = biological target: Multiprotein bridging factor 1 (Mbf1), recombinant Drosophila (Drosophila); assay: as above

With “Multiprotein bridging factor 1 (Mbf1), recombinant Drosophila” the binding [1] was “no binding (tested: 50 µg each of Pcm and Mbf1 in 30 µl)” and the binding [2] was “no binding (tested: 5 µg each in 200 µl TBST)”.

B1: Recombinant Drosophila Pacman (Pcm) protein (residues 1-1141) with C-terminal FLAG tag (domain or fragment, UniProt Q9VWI1 1-1141)
chain: T1 sequence
B1 was tested, and the binding [3] was “no binding (tested: 5 µg each in 200 µl TBST)”.

Source: article PMC5868998
